The list shows a part of the results. At the low end of the ranking the order means little.

The assay relates to OCT4 + histone octamer. Description: Pioneer-seq (competitive nucleosome EMSA with sequencing). The settings on record: 10 mM Tris-Cl pH 7.5, 50 mM NaCl, 1 mM DTT, 0.25 mg/ml BSA, 2 mM MgCl2, 0.025% Nonidet P-40, 5% glycerol; 28 nM nucleosome library; 10 min on ice then 30 min …; high values mean tight binding; double strand, one strand shown.
With “GATGGACCCTATACGCGGCTACCAGAGACTGGACAATTTACAAAAGAAAGTGATTTATTGGACTTAACAGTTCCATGTGGCTGGGGAGGCCTCACAATCACAGTGGAAGGTGAAAGGCAAAAGGCACATCGCACATGGTGGCAGACAGGAGAACAGAGCTTGTGCAGGGAGAATGCCCTTTTACATCATATCTCAAGAGACATATTCACTTGCCAGTCGGATAGTGTTCC”, the binding signal (log2 relative supershift) is -0.019. “GATGGACCCTATACGCGGCACACATCAGGAAAGATGGCAAGCAGAACGAGAACTAGTGCTACAAAAAGTGATCTCACTGTAACAGCATGGGTGGGCCTGGAAGTCAGTTCTCATGCAACCCCATTAGTTCTAGAAAGTTCTCATATGACTAAGAAAAAGCTGACAGGAATCAAACAGATTTCATCATTAAGCAAACAGAAAACATCAAGTTGCCAGTCGGATAGTGTTCC”: the binding signal (log2 relative supershift) is -0.486. As for “GATGGACCCTATACGCGGCCAATAAGGGTGGTCTGGTGCCTTGCTCCAAAAGGCCTTATCAGTAGACCTGAGACGATGGGCTGGGTTGTCTTCATTAACCTCTGAAAGCATGCCTGGGGAAGAAGGGACCAGCCTGGGCTCCGAAGGCCTCCTCAGAACAAGACCCTGCTTGTCCAAGTGCCTCACTCCCGGGTGGCTTGATTTCCAGGATGCCAGTCGGATAGTGTTCC”, the figure is -0.325. As for “GATGGACCCTATACGCGGCTTCTCTTTCTCCCTGCCTCCACCAGCCCAGACCCCACCCCACCTCCTGTAAACCAGGGGCAGCAGGGGAGGGACGCTTTGCAGAGCAGTGCAAGTACAGACAAGTGCGTCGCTGAATCTGTGATCAGTGCTGGGGGCCCCTCAGGGCTGCCTGTACCTGGGTGGGGTGGGACATCACCAGCCCATAGCCCATGCCAGTCGGATAGTGTTCC”, the figure is -0.244; as for “GATGGACCCTATACGCGGCATTATGTACACAGTCTCATGGACAAAGGCATTTGTCAAGTCTCTATGATATTTCTAGAAATACCTTACAGGGCATTATGACTATACAAAGTCAGGGTAGGGCAGCAGAATGCCTGTCTTCAAGACTCTCCATCCCAATGCTCAGGACTTGTTATGCTACTCAGACCAGCATCTTTTGCACAAAGTATTTGTTGCCAGTCGGATAGTGTTCC”, -0.161; as for “GATGGACCCTATACGCGGCTGAAATTTTCCAGAGTTGCTCGGGGATGTCACTCGAATGGAACATTTGGGAGACTGCCAAGACCCATTTGTCAGCATGTACAGGCCTGCCCTGAGAGACCACAAATGATGGGAACTCTTGAAAGGTCTAGGGCAGTAGCCTCCAAGATAGGTCACTCCTATTCCCTGGATTCACAGCCAGCAAGAGCAGTATGCCAGTCGGATAGTGTTCC”, -0.207. As for “GATGGACCCTATACGCGGCCCCCAGACCAAGGGCCAACAGGCCCCAGCCTGTACCTCTCAGCTGGGTCCCAGTGAACTTGGGCCTCCAAGGGGCCTTCCCCAGGCACCAGGGGAGGGCAGAGGGCAGGGCTGGGCCTGGACTTGCAGGATGCTCAACAGAGTTTGCCCTACCTAATTCCCACACCCCTCCTCTTGTACTCTTTCCCATCTTGCCAGTCGGATAGTGTTCC”, the figure is -0.679. For “GATGGACCCTATACGCGGCAGAGAGCCCAAGACTAGAAATGCCCATATCTTCCCATGGAAAGTGTTCCTCTGATAGGCGGGAGACAGAGGACCAAATTGCAAGTTACAACCTGCAGCCTGGGAGTTTCAGGGGCTTCAACACCAAATGAAATTGGAGAACTATCAACAGGATTCAGGGTTCAGCACAGGCTCCAGCAAGACAGAGAGAAATGCCAGTCGGATAGTGTTCC”, the binding signal (log2 relative supershift) was -0.193. The result for “GATGGACCCTATACGCGGCGAGGAAGAGTCCCAGGGTGATGAGGGTGAGGGTGTGTTCCCTCCCACAATTAATGCCATCACAGTGAGATCTGCCTAATAATAGGATCTCCAGACCCCAGCAAATTGTCTGCTGATCTCAGGCAATGTTTGTCTGTAAGAATCCTTCGCCCTGTGTAAACATTTTATTAGACCATTAAGTTGCCGTCAGCCTGCCAGTCGGATAGTGTTCC” reads -0.598; that for “GATGGACCCTATACGCGGCTTGAAAGCCAAACTCTTAGATGTTGTGCATGTCGAAACTGGAACAAAGATTATAATGCAAGTTCAATTTTCCTCAAATATGGATCTCAACATTAATTGTGGTATGCAGCTCACCCACAGCCTTGGGTGTGGTCTATGAATGCAGCTGCTACTCTGTTCTACAATTATTGTATTTTATTGCCATTATGACTGTGCCAGTCGGATAGTGTTCC”, -0.389; that for “GATGGACCCTATACGCGGCGGGTCCCCAGAGAATCTCCAGGCACACAAGTGTCTACCACAGATAAAACATCTGGTGCAGATAAGGGAACCTGCACAGGGGCTTGCCTGGACATGCCAGCAGCAGACTGGAGGCCCACATGCACTGGGGAGCTGGGGTGGAGCCACCAAGAATTCATGCCTTATGCAGAGGAGGAGCCTGGCCTCTTCAGCTGCCAGTCGGATAGTGTTCC”, -0.873. As for “GATGGACCCTATACGCGGCCGTGCCTGGAGCTTGGAATTCAGGCCAGAAACCACCAGTGGACACCAGCATTCCACACTCACTGCACAGGCTGGGGCTCAAACCAAGGCCCAGGGACAGGAAGGGACAAGCCCCAGCCCCAGCCGGACTCCCAGCCCACACAAACCATCAGGGCTTGTTTCCTGCTCCATGGAAGCCTCAGACATGTTTCATGCCAGTCGGATAGTGTTCC”, the figure is -0.431; as for “GATGGACCCTATACGCGGCGAGTAAACCAGTCTGCCTGTGAGAGTATTGACTGTGGTTAAGAATGCGGGATTGTGTTGCAAAGAAGCTCAGGCCTGTAATGTTATCACTCAGCAGGACTGGGTCCCATCAGAAGGCACATGGTGTGCCATGACGTAGCTGGTCTTCGACCACAAAAGCAGACTTTTCTCTGTGAATTAGACAAACCACACTGCCAGTCGGATAGTGTTCC”, -0.77. As for “GATGGACCCTATACGCGGCTGCTGGAATGTTCCTGTATTGCCTGCTTTAGCATGTGTGTTGGCAGGGTGTAGATACATACACCCCCACAACGACCCTCCTCCCACCCTATGTAAATGTACTCACTCTACAGCATTGTAAAGGATTTCATTGTGCCATTTTGTTTTCAGAATCATCTTTCACTCTTTTGTGAGTATAATGATAGTAGCTGTTGCCAGTCGGATAGTGTTCC”, the figure is -0.523; as for “GATGGACCCTATACGCGGCAGGGAGGTGTTTGGGGTTTGGACAGCTGCTCCCTCCTTTAGGGCTGACTGTCCCATCAGGAGGGGGTTGTTTCTGTTGCTCAGTGGGGAATCTGCAGGCCTCGACAGGCTCTGAGCTGGGAAACAGGAGTGGCCCTGCCTGTCCTATGACACACTGTGAGTGGAGGGGGCTGTGGCCGGCAGGGACGTAGGTGCCAGTCGGATAGTGTTCC”, -0.642; as for “GATGGACCCTATACGCGGCATCAAGGGAAGCAGCCCACTGTGGGCACACTCAGAAAGTATGAGTGAGGGGAGGAGGTGTAGCATGGGGAGAAGAGGCCTGGGGTAGCCCCTGGACAGAAGCCCGCTCCTTTCTGCTCTCTGAGGTGTCCACTGATTCAGCCTGTTGGCCTGGCCAGAACCTGCCCTCTTCATGCCTCGGTTTCCCTGGCTTGCCAGTCGGATAGTGTTCC”, -0.313. For the sequence “GATGGACCCTATACGCGGCGCTTGAACTCTGAACCTGGTGGGTTGGTTAAGCCAACAAGGGGAAGGAGTCAGTGGAAGTGGGGTTGGGAAAGGGGGCCTCCATGTGTCTGCACCTGCCTGACACTACCTGCCCCATACCACACCCTCCTGACACTGCCCACCCCTACCCCACCCTCCTGACACTGCCTACCCAATACCCCACCCTCCTGTTGCCAGTCGGATAGTGTTCC”, the binding signal (log2 relative supershift) is -0.768. On to “GATGGACCCTATACGCGGCGCAAAGCTCCAGTACCCTCAGGCCACACCTACTGGAAAAATATATGTCAGCCCCAGAAAATTGTGGGCAAGATGAGGCAAGTCCTGAGCAACACAGGAAACTGCCCTCCTCCTTTTCTGGCCCCGCTTCCACTGTGATGCTAAAGATCGCATCAAGGCTGGTCATCCAATCAGCAGGATGTAAGAGGGTCATGCCAGTCGGATAGTGTTCC”, for which the binding signal (log2 relative supershift) is -0.611. As for “GATGGACCCTATACGCGGCTATAGAGATTGAATGGAAGAGTGCCTTGGAAAGTGTCTCTACCAAATGGCACCTGAGCTGAATGTTGTAGAATAAGAGCTGTTCATCAGGATGACAATGGGAGGGGAGGAGGCTGAGATAAAGGCATTTCAAATGGAGGGAATAGCAAAGATGTGGAAGCATGGCCTGTCATTAAACTGCAAGTAGTTCAGTGCCAGTCGGATAGTGTTCC”, the figure is -0.964; as for “GATGGACCCTATACGCGGCGATAATTTGGATTTAGGGTAAGGGACAGCGTTGCTCATCTACAGGACCACAAGGGGTTCTGTGCTGCAGGGGCATAAGAAGGAGCATGTGCCATGTGGGGAATGCAGGGAAGCAGGGCAGAGGGACGTAGGAGAGGAAGATTAAGAGCCAAGGGGGAGGGGCAGGCAGGCAGGTCCTTTTCCATCTTTTCATGCCAGTCGGATAGTGTTCC”, -0.669. The result for “GATGGACCCTATACGCGGCGAACAATCAAGAGCTGTTTCTCTTTGCTCTTCCTCATAGCCATGCTGGAGGCATTCATAGGCACATCCTGGTGGAGGGTGATTTGGGTGGGTAGGAATGGACTTGTTCTGTTGACATTGGCATGAAAGGACTAGAGTGCATCCATCATTCTATGGGTATTTAATGGGCCCTATGTTGAGCTGTGTTCTGGTTGCCAGTCGGATAGTGTTCC” reads -0.399; that for “GATGGACCCTATACGCGGCTGGGGCTCAGTGTTCTGGGAGAAGTGGGTTCTAGCTCTGCCGCTGGGCCCTGGGTGTGGGCGCCCAATCGTCCGGGAAGCGCCCACAAGCCCAGGCAAGTCCCGACAGCGGTAGCCCGAGCCCAAGCGCTGCGGGCCCGGCGTCCCAGTGACCCCAGTTCCGGGTCCGAGGCACCGCCGGCGGCATCTCCCTGCCAGTCGGATAGTGTTCC”, -0.914; that for “GATGGACCCTATACGCGGCTGTGTTTTAAAAAAGAAGTATTTCTTGCAAACACTTATGACTTGTCTATGTCTTCTACAAGTCTGGACATGTCTTGGAACATTATCTGTGTTCTGTGGGTTACAAGGCTTGTCGAGGTCAAAGTACTCAGACATGAGACAGGCACCTTGTATACTCCAGAGAGCTAGAAATACTTGGAGATTAAGTCTAGTTGCCAGTCGGATAGTGTTCC”, -0.41. The result for “GATGGACCCTATACGCGGCTGGGATTTGGGAATGATGTGTGTGAATTAGAGAGATTTCGAGACCTGAAATAGAGAAAAGCAAGTTAAGACATCAACTGGGGCCCAGAAACAGCACTACAGCGGGGACGACCCACCTCTCAGATGCCTGGTGAGATAAAGAAAGGTCTGGCTGACTCCACTGCCCAGTACTGTGAAGCAGCAGTGAAGACTTGCCAGTCGGATAGTGTTCC” reads -0.239.

For the origin of these results see publication PMC12370185.
